Experimental data taken from paper PMC7933275.
Results are given in words; binding and its absence hold for the method and conditions named. Binding seen in cells or lysates may run through a third protein. A yes stands for co-enrichment or nearness to the bait. Other partners may have been found. Sequences can lack the tags named with a protein.

Molecular target: T1, ubiquitin-specific protease 53 (USP53) with GFP, from the lentiviral vector pLenti-GIII-CMV-USP53-GFP-2A-Puro (UniProt Q70EK8)
T1 sequence: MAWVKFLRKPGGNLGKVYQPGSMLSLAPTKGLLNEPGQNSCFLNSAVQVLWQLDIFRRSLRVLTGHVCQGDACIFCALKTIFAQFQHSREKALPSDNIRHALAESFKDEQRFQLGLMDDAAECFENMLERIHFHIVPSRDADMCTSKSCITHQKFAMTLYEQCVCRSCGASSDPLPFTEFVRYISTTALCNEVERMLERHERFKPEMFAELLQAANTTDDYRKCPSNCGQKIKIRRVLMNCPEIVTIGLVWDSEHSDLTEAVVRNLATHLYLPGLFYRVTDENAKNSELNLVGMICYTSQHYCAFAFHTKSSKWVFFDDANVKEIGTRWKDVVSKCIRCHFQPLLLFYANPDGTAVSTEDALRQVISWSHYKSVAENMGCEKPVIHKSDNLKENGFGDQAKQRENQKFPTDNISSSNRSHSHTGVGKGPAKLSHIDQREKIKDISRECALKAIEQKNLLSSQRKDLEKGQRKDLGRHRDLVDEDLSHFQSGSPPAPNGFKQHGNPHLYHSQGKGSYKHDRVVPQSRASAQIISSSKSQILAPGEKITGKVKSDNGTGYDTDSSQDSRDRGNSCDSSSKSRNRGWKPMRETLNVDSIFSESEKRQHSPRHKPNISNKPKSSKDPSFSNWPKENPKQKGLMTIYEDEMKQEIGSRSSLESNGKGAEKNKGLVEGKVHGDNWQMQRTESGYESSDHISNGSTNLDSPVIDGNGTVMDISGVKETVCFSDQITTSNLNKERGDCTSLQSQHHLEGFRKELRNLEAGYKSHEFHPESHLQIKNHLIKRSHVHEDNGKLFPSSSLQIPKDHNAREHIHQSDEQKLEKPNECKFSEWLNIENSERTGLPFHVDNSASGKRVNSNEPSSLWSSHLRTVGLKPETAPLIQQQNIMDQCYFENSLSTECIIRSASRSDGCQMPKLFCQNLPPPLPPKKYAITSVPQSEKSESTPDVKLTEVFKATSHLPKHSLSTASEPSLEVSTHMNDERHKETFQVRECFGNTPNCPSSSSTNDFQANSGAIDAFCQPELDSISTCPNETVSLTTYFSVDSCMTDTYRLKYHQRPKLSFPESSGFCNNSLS
Assay: affinity purification with mass spectrometry; hBMSCs with lentiviral control vector or lentiviral vector-USP53, osteogenic induction medium for 4 days, MG132 (10 μM) for 6 h, passive lysis buffer; about 500 μg total protein incubated with antibody against GFP or IgG control at 4 °C overnight; differential bands of the InstantBlue-stained SDS-PAGE gel analysed by LC-MS/MS

binding: binds
B1: F-box only protein 31 (FBXO31), endogenous in hBMSCs (protein, UniProt Q5XUX0 1-539)
chain: MAVCARLCGVGPSRGCRRRQQRRGPAETAAADSEPDTDPEEERIEASAGVGGGLCAGPSPPPPRCSLLELPPELLVEIFASLPGTDLPSLAQVCTKFRRILHTDTIWRRRCREEYGVCENLRKLEITGVSCRDVYAKLLHRYRHILGLWQPDIGPYGGLLNVVVDGLFIIGWMYLPPHDPHVDDPMRFKPLFRIHLMERKAATVECMYGHKGPHHGHIQIVKKDEFSTKCNQTDHHRMSGGRQEEFRTWLREEWGRTLEDIFHEHMQELILMKFIYTSQYDNCLTYRRIYLPPSRPDDLIKPGLFKGTYGSHGLEIVMLSFHGRRARGTKITGDPNIPAGQQTVEIDLRHRIQLPDLENQRNFNELSRIVLEVRERVRQEQQEGGHEAGEGRGRQGPRESQPSPAQPRAEAPSKGPDGTPGEDGGEPGDAVAAAEQPAQCGQGQPFVLPVGVSSRNEDYPRTCRMCFYGTGLIAGHGFTSPERTPGVFILFDEDRFGFVWLELKSFSLYSRVQATFRNADAPSPQAFDEMLKNIQSLTS
